Test results taken from PMC8949366 (Marine Drugs, 2022).

Experiment: general procedure: peptide synthesis; 2-chlorotrityl chloride (CTC) resin, load 0.985 mmol/g; PyBOP (macrocyclization)
Conditions: cyclisation step

Substance | cyclisation yield [%] | cyclisation yield (on linear precursor) [%]
Cyclo (Leu-Pro-Leu-Pro-D-Leu) | 58.9 | –
Cyclo (Leu-N-Me-Leu-Leu-Pro-Leu) | – | 40.7
Cyclo (D-Leu-Pro-Leu-Pro-D-Leu) | 34.5 | –
Cyclo (Leu-Pro-D-Leu-Pro-D-Leu) | 54.6 | –
Cyclo (D-Leu-Pro-D-Leu-Pro-D-Leu) | 46.2 | –
Cyclo (Leu-Pro-D-Leu-Pro-Leu) | 36.4 | –
